Laboratory results as given in doi:10.1101/2021.10.18.464913.

Molecular target: T1, Kir6.2 with C-terminal GFP tag from Mus musculus (Mus musculus) (UniProt Q61743)
T1 sequence: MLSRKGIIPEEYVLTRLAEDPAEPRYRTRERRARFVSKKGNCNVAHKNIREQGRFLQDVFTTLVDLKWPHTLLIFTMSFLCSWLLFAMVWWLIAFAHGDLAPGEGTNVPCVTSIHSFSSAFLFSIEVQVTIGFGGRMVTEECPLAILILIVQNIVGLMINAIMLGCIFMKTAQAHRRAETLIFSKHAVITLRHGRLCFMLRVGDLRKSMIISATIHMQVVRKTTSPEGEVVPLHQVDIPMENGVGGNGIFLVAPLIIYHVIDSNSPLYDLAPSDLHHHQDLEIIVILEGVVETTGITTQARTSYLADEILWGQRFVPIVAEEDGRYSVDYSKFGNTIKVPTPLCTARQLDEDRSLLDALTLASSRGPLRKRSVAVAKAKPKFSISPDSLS
Assay: SEC

With “SUR1 of Mesocricetus auratus (from UniProt A0A1U7R319)” the binding was “binds”.

Results are given in words; binding and its absence hold for the method and conditions named. A result given as binding can be weak or reduced; the word gives no strength. Where a sequence is shown, tags or fusion partners need not be part of it.
